Data on 19 compounds can be found in PubChem BioAssay AID248 (DTP/NCI, 2004).

The list is a part of this screen's results and no random one: it is rich in T/C values a quarter to a half above the control, in often repeated tests (any T/C) and in doses without a T/C. Other doses and runs of a compound stand elsewhere. T/C: endpoint of the treated group in % of that of the vehicle group. Some entries give survivors of the animals treated and no T/C: the source files T/C as zero there, which appears to mark a toxic dose or a test without result, not a measured value. Some survivor counts are full or nearly so, which does not show that the dose was tolerated: the source hardly ever lists a survival T/C far under the control, and the zero likely stands for such cases as well. Survivors were counted at the toxicity check, usually on the fifth day, unless a day is given; later deaths do not show. Schedules are NCI's codes, read here as Q, the interval in days (D) or hours (H), X, the number of doses. Some schedules carry Z or #; the key to these is not given. For survival time, the PubChem record calls one and a half times the control and up active, and a quarter to a half above the control has no call in these data; cut-offs in other NCI protocols can differ. Some entries were tested several times; the results are listed from low to high.

This assay concerns L1210 leukemia ip in BDF1 mice, survival T/C. Briefly: NCI In Vivo Anticancer Drug Screen. Data for tumor model L1210 Leukemia (intraperitoneal) in B6D2F1 (BDF1) mice. The following applies: T/C endpoint: mean survival time, higher T/C = longer survival.
Where [1] appears, read: dose: 100.0 mg/kg/injection, schedule: Q04DX002 (ip), vehicle: saline with Tween-80.
[2] abbreviates: dose: 200.0 mg/kg/injection, schedule: Q04DX002 (ip), vehicle: saline with Tween-80.
Setting [3] is: dose: 400.0 mg/kg/injection, schedule: Q01DX009 (ip), vehicle: Klucel (hydroxypropylcellulose) (HPC).
The mark [4] stands for this setting: dose: 400.0 mg/kg/injection, schedule: Q01DX009 (ip), vehicle: saline with Tween-80.
Setting [5] is: dose: 300.0 mg/kg/injection, schedule: Q01DX001 (ip), vehicle: saline.

For the compound `Cc1ccc(CN(C)N=Nc2ccccc2)cc1`, the survivor count (dose: 400.0 mg/kg/injection, schedule: Q04DX002 (ip), vehicle: Klucel (hydroxypropylcellulose) (HPC)) was 1 of 3.
`CC(=O)[O][Sn]([CH2]C1CCCC1)([CH2]C1CCCC1)[CH2]C1CCCC1`: the survivor count runs as follows: (dose: 6.25 mg/kg/injection, schedule: Q04DX002 (ip), vehicle: saline with Tween-80) 2 of 3; (dose: 12.5 mg/kg/injection, schedule: Q04DX002 (ip), vehicle: saline with Tween-80) 3 of 3; (dose: 25.0 mg/kg/injection, schedule: Q04DX002 (ip), vehicle: saline with Tween-80) 1 of 3; under setting [1], 0 of 3; under setting [2], 0 of 3; (dose: 400.0 mg/kg/injection, schedule: Q04DX002 (ip), vehicle: saline with Tween-80) 0 of 3.
With `CCCCCSP(SCCCCC)c1ccccc1`, the survivor count under setting [3] is 0 of 6.
On to `O=C1C=CC(=Nc2ccc(O)cc2)O1`, for which the survivor count was 0 of 6 (dose: 100.0 mg/kg/injection, schedule: Q01DX009 (ip), vehicle: saline with Tween-80); 0 of 6 (dose: 200.0 mg/kg/injection, schedule: Q01DX009 (ip), vehicle: saline with Tween-80); 0 of 6 under setting [4].
For the compound `O=NN(CCCl)C(=O)Nc1cc(NC(=O)N(CCCl)N=O)cc(C(=O)O)c1`, the T/C is 131 % of control (dose: 0.79 mg/kg/injection, schedule: Q01DX009 (ip), vehicle: saline); 143 % of control (dose: 1.1 mg/kg/injection, schedule: Q01DX001 (ip), vehicle: saline); 131 % of control (dose: 1.2 mg/kg/injection, schedule: Q01DX009 (ip), vehicle: Klucel (hydroxypropylcellulose) (HPC)); 142 % of control (dose: 1.9 mg/kg/injection, schedule: Q01DX009 (ip), vehicle: Klucel (hydroxypropylcellulose) (HPC)); 141 % of control (dose: 1.9 mg/kg/injection, schedule: Q04DX003 (ip), vehicle: saline); 126 % of control (dose: 2.5 mg/kg/injection, schedule: Q01DX001 (ip), vehicle: carboxymethylcellulose (CMC)). Moreover, the T/C reads like this: (dose: 2.5 mg/kg/injection, schedule: Q01DX009 (ip), vehicle: Klucel (hydroxypropylcellulose) (HPC)) 126 % of control; (dose: 2.9 mg/kg/injection, schedule: Q04DX003 (ip), vehicle: saline) 139 % of control; (dose: 3.9 mg/kg/injection, schedule: Q01DX001 (ip), vehicle: saline with Tween-80) 133 % of control; (dose: 4.4 mg/kg/injection, schedule: Q04DX003 (ip), vehicle: saline) 142 % of control; (dose: 5.0 mg/kg/injection, schedule: Q01DX001 (ip), vehicle: carboxymethylcellulose (CMC)) 125 % of control; (dose: 6.0 mg/kg/injection, schedule: Q01DX001 (ip), vehicle: saline) 147 % of control. The T/C is 144 % of control (dose: 6.6 mg/kg/injection, schedule: Q01DX009 (ip), vehicle: Klucel (hydroxypropylcellulose) (HPC)); 139 % of control (dose: 18.0 mg/kg/injection, schedule: Q01DX001 (ip), vehicle: saline); 148 % of control (dose: 39.0 mg/kg/injection, schedule: Q01DX001 (ip), vehicle: saline with Tween-80); 130 % of control (dose: 40.0 mg/kg/injection, schedule: Q01DX001 (ip), vehicle: saline). In addition, the survivor count by setting is: (dose: 30.0 mg/kg/injection, schedule: Q04DX003 (ip), vehicle: saline) 6 of 6; (dose: 40.0 mg/kg/injection, schedule: Q01DX009 (ip), vehicle: Klucel (hydroxypropylcellulose) (HPC)) 3 of 6; (dose: 60.0 mg/kg/injection, schedule: Q01DX001 (ip), vehicle: saline) 2 of 6; (dose: 60.0 mg/kg/injection, schedule: Q01DX009 (ip), vehicle: Klucel (hydroxypropylcellulose) (HPC)) 1 of 6.
In the case of `CCC1OCCN1C(C)C` (stereo not drawn), the T/C is, setting by setting: (dose: 40.0 mg/kg/injection, schedule: Q01DX Z (ip), vehicle: other) 129 % of control; (dose: 60.0 mg/kg/injection, schedule: Q01DX Z (ip), vehicle: other) 125 and 127 % of control. For the setting “dose: 200.0 mg/kg/injection, schedule: Q01DX Z (ip), vehicle: other”, the survivor count is on record as 0 of 6.
As to `O=C(C#Cc1ccccc1)c1ccccc1`, the survivor count is recorded as 3 of 6 (dose: 40.0 mg/kg/injection, schedule: Q01DX001 (ip), vehicle: Klucel (hydroxypropylcellulose) (HPC)); 2 of 6 (dose: 80.0 mg/kg/injection, schedule: Q01DX001 (ip), vehicle: Klucel (hydroxypropylcellulose) (HPC)); 1 of 6 (dose: 100.0 mg/kg/injection, schedule: Q01DX001 (ip), vehicle: Klucel (hydroxypropylcellulose) (HPC)); 0 of 6 (dose: 200.0 mg/kg/injection, schedule: Q01DX001 (ip), vehicle: Klucel (hydroxypropylcellulose) (HPC)); 0 of 6 (dose: 400.0 mg/kg/injection, schedule: Q01DX001 (ip), vehicle: Klucel (hydroxypropylcellulose) (HPC)).
`CC(N=CN(C)C)c1cccc2ccccc12` (stereo not drawn): the survivor count (dose: 400.0 mg/kg/injection, schedule: Q04DX003 (ip), vehicle: saline with Tween-80) was 3 of 6.
`COc1cc(C)c(Cl)[n+]([O-])n1`: the survivor count reads like this: (dose: 50.0 mg/kg/injection, schedule: Q04DX002 (ip), vehicle: saline with Tween-80) 1 of 3; under setting [1], 0 of 3; under setting [2], 0 of 3.
Take `SCCCCN1CCCCC1`: the survivor count is 0 of 6 (dose: 50.0 mg/kg/injection, schedule: Q01DX001 (ip), vehicle: carboxymethylcellulose (CMC)); 0 of 6 (dose: 100.0 mg/kg/injection, schedule: Q01DX001 (ip), vehicle: carboxymethylcellulose (CMC)); 0 of 6 (dose: 200.0 mg/kg/injection, schedule: Q01DX001 (ip), vehicle: carboxymethylcellulose (CMC)); 0 of 6 (dose: 400.0 mg/kg/injection, schedule: Q01DX001 (ip), vehicle: carboxymethylcellulose (CMC)).
Turning to `CN(C)C1=CS(=O)(=O)C1`, the survivor count under setting [5] is reported as 0 of 6.
In the case of `O=N[O-].O=N[O-].O=N[O-].O=N[O-].O=N[O-].O=N[O-].[Ni]`, the T/C (dose: 100.0 mg/kg/injection, schedule: Q04DX002 (ip), vehicle: saline) was 125 % of control. Moreover, the survivor count is, setting by setting: (dose: 200.0 mg/kg/injection, schedule: Q04DX002 (ip), vehicle: saline) 1 of 3; (dose: 400.0 mg/kg/injection, schedule: Q04DX002 (ip), vehicle: saline) 0 of 3.
Take `[Cu+2].[NH-]C1C(Cl)CCC2C(Cl)CC[N-]C12` (stereo not drawn): the survivor count (dose: 25.0 mg/kg/injection, schedule: Q04DX003 (ip), vehicle: Klucel (hydroxypropylcellulose) (HPC)) is 2 of 6 and the survivor count (dose: 50.0 mg/kg/injection, schedule: Q01DX001 (ip), vehicle: other) was 2 of 6.
For the compound `Oc1ccc2ccccc2c1N=Nc1nccs1`, the survivor count (dose: 100.0 mg/kg/injection, schedule: Q01DX009 (ip), vehicle: Klucel (hydroxypropylcellulose) (HPC)) is 5 of 6; the survivor count (dose: 200.0 mg/kg/injection, schedule: Q01DX009 (ip), vehicle: Klucel (hydroxypropylcellulose) (HPC)) is given as 1 of 6; the survivor count under setting [3] is reported as 0 of 6.
For the compound `CNC(=O)O/N=C/c1ccc([N+](=O)[O-])cc1`, under setting [5], the survivor count is 1 of 6.
As to `CCNC(=O)N(Cc1ccccc1)Cc1ccccc1`, the survivor count under setting [4] is 1 of 6.
Regarding `Oc1ccccc1C=Nc1ccc(Cc2ccc(N=Cc3ccccc3O)cc2)cc1`, the survivor count (dose: 75.0 mg/kg/injection, schedule: Q04DX003 (ip), vehicle: other) is reported as 6 of 6.
`CN(C)Cc1cccc([N+](=O)[O-])c1`: the survivor count reads like this: (dose: 100.0 mg/kg/injection, schedule: Q04DX003 (ip), vehicle: saline) 5 of 6; (dose: 200.0 mg/kg/injection, schedule: Q04DX003 (ip), vehicle: saline) 0 of 6; (dose: 400.0 mg/kg/injection, schedule: Q04DX003 (ip), vehicle: saline) 0 of 6.
On to `O=[N+]([O-])c1cccc(S(=O)(=O)OCC2CO2)c1` (stereo not drawn), for which the survivor count under setting [3] is 5 of 6.
